# Assay results taken from patent publication US20220193241A1, “AGENT TARGETING DOUBLE-MEMBRANE ORGANELLE DNA” (CHIBA-PREFECTURE, priority 2019, published 2022).
# At least one compound was matched to its structure with a doubt left.
# System: A549 cells
# Experiment: Synthetic lethality: cell morphology with CCC021-TPP and ABT-199 or A1155463
# Format: cell-based
# Conditions: single administration: 20 μM CCC021-TPP, 10 μM ABT-199, 10 μM A1155463; 4 days
# Procedure: It was confirmed with the BCL2- and BCL-XL-specific inhibitor that the suppression of cell death in the cellular senescence of the A549 cells was presumably due to the BCL pathway. The type of BCL pathway inhibition, combined use of which could induce cell death (apoptosis) in the senescent cells of the A549 cells was studied. Five hundred A549 cells were inoculated to a 96-well plate and cultured for 24 hours. Then, change in cell morphology was photographed under an optical microscope either without administration (i.e., after DMSO treatment) or 4 days after treatment with 20 μM CCC021-TPP and 10 μM BCL2 inhibitor ABT-199 (compound venetoclax of No. 33 in FIG. 55-10) or 10 μM BCL-XL inhibitor A1155463 (compound of No. 16 in FIG. 55-6) each alone, or treatment by combined use of the same concentration of CCC021-TPP with the same concentration of ABT-199 or A1155463.
smiles,measurement,value
"CC1(C)CCC(CN2CCN(c3ccc(C(=O)NS(=O)(=O)c4ccc(NCC5CCOCC5)c([N+](=O)[O-])c4)c(Oc4cnc5[nH]ccc5c4)c3)CC2)=C(c2ccc(Cl)cc2)C1 [ABT-199, venetoclax, reference compound]",cell death (morphology),Any finding indicating cell death was not obtained
